Assay results taken from PubChem BioAssay AID485314 (National Center for Advancing Translational Sciences (NCATS), 2010).
Screen size: about 340,000 compounds; about 4,500 (1.3%) were called active. The shares of active, inactive and inconclusive entries below differ from those in the screen. Calls come from the whole dose curve; as a rule, active = well fitted inhibition curve with a large enough effect; inconclusive = small, poorly fitted or top-dose-only effect, or another doubt; inactive = no such curve, though single readings can be large or run the other way. Where the call is inconclusive, the potency comes from a doubtful curve fit.

The compounds below were run against DNA polymerase beta (Homo sapiens) (UniProt P06746) (assay: qHTS Assay for Inhibitors of DNA Polymerase Beta). Conditions: Pol beta primer extension/strand displacement, fluorescence kinetic; activity change, negative = inhibition: at 114 µM (top of the series).
Outline: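 Enzyme-only controls used 10 nM Pol beta; buffer lacking enzyme served as negative control. Compound preincubated 15 min, then 50 nM substrate added; 0 and 10 min reads at room temperature.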
% is set by controls: 0 for no effect and ±100 for the full control effect; potency is the fitted concentration of half-maximal effect.

Activity change, negative = inhibition, inactive:
COC(=O)[C@@H](Cc1ccccc1)NC(=O)NCCc1c[nH]c2ccccc12 6.79%, CCOC(=O)c1c(C)c(C(=O)NCCc2ccc(OC)cc2)c(C)n1C 29.3%, CCOc1ccccc1NS(=O)(=O)c1c(-c2ccc(C)cc2)csc1C(=O)OC 5.18%, COC(=O)c1sccc1NC(=O)Nc1ccc(OC)cc1 38.3%, Cc1cc(NC(=O)CSc2n[nH]c(=O)[nH]c2=O)ccc1Br -7.71%, CCOC(=O)c1cc(-c2ccccc2)n(CC(=O)NCc2ccccc2OC)c1C -10.1%, Cc1cc2nc3c(=O)n(C)c(=O)n(C)c3nc2cc1N=CN(C)C 4.19%, Cc1cccc(Cn2nc(C)cc2NC(=O)Cn2cc([N+](=O)[O-])cn2)c1 19.9%, Cc1cc(C)c2cc3c(N)c(C(=O)N4CCOCC4)sc3nc2c1 24%, O=C1c2ccccc2C(=O)N1CCSc1n[nH]c(=S)s1 -2.79%

Potency, active:
O=C(N/N=C/c1cccc(O)c1)c1ccc(NC(=O)C2CCCCC2)cc1 31.6 µM, Cc1c(Cl)cccc1NC(=O)CCS(=O)(=O)c1ccc(Br)s1 50.1 µM, O=C(COc1ccccc1)Nc1sc2c(c1C(=O)NCc1cccnc1)CCCC2 35.5 µM, O=c1cc(CN2CCN(c3ccccc3)CC2)nc2scc(-c3ccccc3)n12 39.8 µM

Potency, inconclusive:
CCOc1ccc(CCNC(=O)CCc2nnc3ccc(N4CCCC4)nn23)cc1OCC 0.199 µM [inhibitor, full curve, poor fit], COc1ccc(N2CCN(C(c3cc4cc(C)ccc4[nH]c3=O)c3nnnn3Cc3ccccc3)CC2)cc1 (centres undefined) 22.4 µM [inhibitor, partial curve, poor fit], COC(=O)C1=C(C)NC(C)=C(C(=O)OC)C1c1ccc(OC(=O)c2oc3ccccc3c2C)c(OC)c1 89.1 µM [inhibitor, single point], Cc1ccc2nc(NC(=S)NC(=O)c3ccc(OC(C)C)cc3)sc2c1 0.562 µM [inhibitor, full curve, poor fit], COc1ccc(Cl)cc1NC(=O)c1ccoc1C 39.8 µM [inhibitor, partial curve], CCC(C)(C)NC(=O)C1CC(=O)N(CCc2ccc(F)cc2)C1 (centres undefined) 10 µM [inhibitor, partial curve, poor fit], Cc1[nH]c2ccccc2c1N=Nc1cc(C(=O)O)cc(C(=O)O)c1 56.2 µM [inhibitor, partial curve], N/C(Cc1ccc([N+](=O)[O-])cc1)=N\OC(=O)COc1ccccc1Cl 100 µM [inhibitor, single point], O=C(O)c1ccc2[nH]c3c(c2c1)CSCC3 31.6 µM [inhibitor, single point], CC(C)(C)C1CCc2onc(C(=O)Nc3sc4c(c3C(N)=O)CCCC4)c2C1 (centres undefined) 3.55 µM [inhibitor, single point], COc1ccccc1NC(=O)N(Cc1ccco1)Cc1cc2c(C)ccc(C)c2[nH]c1=O 89.1 µM [inhibitor, single point], Cc1ccc(NC(=O)CSc2nc3ccccc3c3nc(CCn4c(C)nc5ccccc54)nn23)cc1F 56.2 µM [inhibitor, partial curve, poor fit], COC(=O)c1cc(OC(=O)c2ccc(=O)[nH]c2)cc(C(=O)OC)c1 39.8 µM [inhibitor, single point], CN(Cc1ccccc1)C(=O)CN(Cc1ccccc1)S(C)(=O)=O 39.8 µM [inhibitor, single point], CCOc1ccc(N2C(=O)CN(C)C2=S)cc1 89.1 µM [inhibitor, single point], COc1ccc2oc(=O)c(C(=O)N3c4ccccc4CC3C)cc2c1 (centres undefined) 2.82 µM [inhibitor, single point], CCOC(=O)c1sc(NC(=O)CSc2nc3c(c(=O)n2-c2ccccc2)SCC3)c(C(=O)OCC)c1C 89.1 µM [inhibitor, single point], CCN1C/C(=C/c2ccc(N3CCOCC3)cc2)C(=O)/C(=C/c2ccc(N3CCOCC3)cc2)C1 31.6 µM [inhibitor, single point], O=C(CSc1nnc(NC(=O)c2c(F)cccc2F)s1)Nc1ccc(F)cc1 89.1 µM [inhibitor, single point], C=C(C)CSc1nnc(-c2ccc(OC)c(OC)c2)n1N 5.62 µM [inhibitor, partial curve], CC(=O)Nc1ccccc1OCC(=O)NCC(F)(F)F 5.01 µM [inhibitor, full curve, poor fit], Cn1c(CNC(=O)c2ccccc2F)cc2ccccc21 79.4 µM [inhibitor, single point], CC(C)(C)C1CCc2nc(NC(=O)Cc3ccc(Cl)cc3)sc2C1 (centres undefined) 89.1 µM [inhibitor, single point], Cc1ccc(CN2CCN(/N=C/c3ccco3)CC2)c(C)c1 1 µM [inhibitor, full curve, poor fit], O=C(Nc1ccc(Cl)cc1)OCc1cn(-c2ccccc2)nn1 31.6 µM [inhibitor, full curve], Cc1ccc(CN2CCN(Cc3cccc4nccnc34)CC2CCO)cc1 (centres undefined) 0.199 µM [inhibitor, full curve, poor fit], CCCCCCN1N=C(C)C(C(=O)c2ccc(Cl)cc2)C1=O (centres undefined) 8.91 µM [inhibitor, full curve], COc1ccc(N=CC2=C(O)CC(c3ccccc3)CC2=O)c(OC)c1 (centres undefined) 39.8 µM [inhibitor, single point], Cc1c(Cl)cnc(NC(=O)COC(=O)CCC(=O)c2cccs2)c1Cl 25.1 µM [inhibitor, single point], CSc1ccc(/C=N/NC(=O)c2cccs2)cc1 63.1 µM [inhibitor, single point]
